The target in test [1] is T1, Drosophila Chc fragment, amino acids 329-803, GAL4 DNA-binding domain fusion (pChc(329-803)-BD) (Drosophila) (UniProt P29742).
T1 sequence: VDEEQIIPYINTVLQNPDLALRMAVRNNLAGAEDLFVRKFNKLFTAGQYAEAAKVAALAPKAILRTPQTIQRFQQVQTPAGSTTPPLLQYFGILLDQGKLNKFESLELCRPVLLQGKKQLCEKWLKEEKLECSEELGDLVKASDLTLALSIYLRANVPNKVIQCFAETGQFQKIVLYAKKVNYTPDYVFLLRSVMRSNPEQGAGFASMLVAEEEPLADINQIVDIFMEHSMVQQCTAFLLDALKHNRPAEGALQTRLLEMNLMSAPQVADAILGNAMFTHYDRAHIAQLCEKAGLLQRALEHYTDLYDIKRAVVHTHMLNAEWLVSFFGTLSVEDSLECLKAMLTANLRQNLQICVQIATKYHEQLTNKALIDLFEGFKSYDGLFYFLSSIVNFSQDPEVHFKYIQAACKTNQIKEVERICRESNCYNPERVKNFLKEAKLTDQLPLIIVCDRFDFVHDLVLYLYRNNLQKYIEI
Nature of the test: two-hybrid.

Test [2] deals with T2, Drosophila Chc fragment, amino acids 329-542, GAL4 DNA-binding domain fusion (pChc(329-542)-BD) (Drosophila) (UniProt P29742).
T2 sequence: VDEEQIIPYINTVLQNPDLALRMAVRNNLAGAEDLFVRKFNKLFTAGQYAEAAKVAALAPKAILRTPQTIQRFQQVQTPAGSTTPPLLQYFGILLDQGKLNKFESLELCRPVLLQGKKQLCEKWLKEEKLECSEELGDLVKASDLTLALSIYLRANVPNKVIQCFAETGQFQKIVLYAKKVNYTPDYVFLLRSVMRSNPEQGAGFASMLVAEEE
Kind of test: two-hybrid.

No constants are given. Whether binding was seen depends on the method and setting. Some binding calls cover weakened binding; strength is not graded here. Where a sequence is shown, tags or fusion partners need not be part of it.

B1: Drosophila BicD carboxy-terminal domain (CTD; amino acids 535-782), GAL4 fusion (domain or fragment, UniProt P16568 535-782)
chain: TAIQSQFKSDVFIAKPQIVEDLQGLADSVEIKKYVDTVSDQIKYLKTAVEHTIDMNKHKIRSEGGDALEKVNTEEMEELQEQIVKLKSLLSVKREQIGTLRNVLKSNKQTAEVALTNLKSKYENEKIIVSDTMSKLRNELRLLKEDAATFSSLRAMFAARCEEYVTQVDDLNRQLEAAEEEKKTLNQLLRLAVQQKLALTQRLEEMEMDREMRHVRRPMPAQRGTSGKSSFSTRPSSRNPASSNANPF
B1: the binding result in test [1] is reported as “binds”.

B2: Drosophila Bicaudal-D (BicD), full-length, GAL4 fusion (pBicD-AD or pBicD-BD) (protein, UniProt P16568 1-782)
chain: MSSASNNGPSADQSVQDLQMEVERLTRELDQVSSASAQSAQYGLSLLEEKSALQQKCEELETLYDNTRHELDITQEALTKFQTSQKVTNKTGIEQEDALLNESAARETSLNLQIFDLENELKQLRHELERVRNERDRMLQENSDFGRDKSDSEADRLRLKSELKDLKFRETRMLSEYSELEEENISLQKQVSSLRSSQVEFEGAKHEIRRLTEEVELLNQQVDELANLKKIAEKQMEEALETLQGEREAKYALKKELDGHLNRESMYHISNLAYSIRSNMEDNASNNSDGEEENLALKRLEADLSTELKSPDGTKCDLFSEIHLNELKKLEKQLESMESEKTHLTANLREAQTSLDKSQNELQNFMSRLALLAAHVDALVQLKKQIDVKEQGKEGGQKKDELEQQLRALISQYANWFTLSAKEIDGLKTDIAELQKGLNYTDATTTLRNEVTNLKNKLLATEQKSLDLQSDVQTLTHISQNAGQSLGSARSTLVALSDDLAQLYHLVCTVNGETPTRVLLDHKTDDMSFENDSLTAIQSQFKSDVFIAKPQIVEDLQGLADSVEIKKYVDTVSDQIKYLKTAVEHTIDMNKHKIRSEGGDALEKVNTEEMEELQEQIVKLKSLLSVKREQIGTLRNVLKSNKQTAEVALTNLKSKYENEKIIVSDTMSKLRNELRLLKEDAATFSSLRAMFAARCEEYVTQVDDLNRQLEAAEEEKKTLNQLLRLAVQQKLALTQRLEEMEMDREMRHVRRPMPAQRGTSGKSSFSTRPSSRNPASSNANPF
Take B2: in test [2], the binding entry is listed as “no binding”.

The values above are taken from doi:10.1101/2020.12.22.423980.
